Experimental data: the supplement of paper PMC12889115
The other results are listed elsewhere or left out. These are raw signals, not scaled to a control.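 In the initial screen, polymyxin B was used at a concentration that permeabilizes Salmonella's outer membrane but not its inner membrane. Maximum growth was set by DMSO wells with or without polymyxin B. Since plates varied, data were ranked per plate, and compounds giving the lowest OD600 advanced as hits.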

System: Salmonella enterica serovar Typhimurium SL1344
Test: bacterial growth OD600 after 18 h with compound and polymyxin B; higher = more bacterial growth (less inhibition)
Conditions: 50 µM, Mueller-Hinton broth

Structure (SMILES) | bacterial growth OD600 (polymyxin B 1 µg/mL) | bacterial growth OD600 (polymyxin B 0.75 µg/mL)
Cc1cc(C(=O)N2CCCC(Nc3ccc(F)cc3)C2)n(C)n1 (stereo not given) | 0.811 | 
COc1ccc(OCc2cc(C(=O)N(C)CC3CCCCO3)n[nH]2)c(Cl)c1 (stereo not given) | 0.898 | 
CN(CC1CCCO1)c1ccc(C(=O)N2CCC(CCn3cccn3)CC2)cn1 (stereo not given) | 0.99 | 
C[C@@H]1CN(C2(C(=O)NCCc3cnccn3)Cc3ccccc3C2)C[C@H](C)O1 | 1.15 | 
O=C1CCCN1CC(=O)N1CCCC(CCc2cccc(F)c2)C1 (stereo not given) |  | 0.786
Cc1cccc(CNC(=O)c2cc(Cn3c(C)nc4ccccc43)on2)n1 | 1.13 | 
O=C1CCC(CCC(=O)N2CCCC(OCc3ccccc3)C2)(Cc2ccccc2)N1 (stereo not given) |  | 0.861
CC(C)N1CCN(CC2(O)CCCN(CC3CCCCC3)C2=O)CC1 (stereo not given) | 0.916 | 
O=C(NCCCN1CCOCC1)c1ccc2oc(Cc3ccc(Cl)cc3)nc2c1 |  | 0.693
COc1ccc(-c2nn(-c3ccccc3C)cc2CN2CCNC(=O)CC2)cc1F | 0.758 | 
Cc1nc(CCNC(=O)C2CCC(=O)N(Cc3ccccn3)C2)nc2c1CCCC2 (stereo not given) | 1.11 | 
Cc1ncc(CNC2CC(=O)N(Cc3cccc4ccccc34)C2)n1C (stereo not given) | 0.958 | 
CCC1(C2CCN(Cc3ccc(OC)cc3O)CC2)NC(=O)N(CCc2scnc2C)C1=O (stereo not given) |  | 0.865
CCCn1cc(CN2C[C@H]3OC(=O)N(C4CCCC4)[C@H]3C2)c(C)n1 |  | 0.787
COc1ccc(CC2(CCC(=O)N(C)Cc3ccc(-n4cccn4)cc3)CCC(=O)N2)c2ccccc12 (stereo not given) |  | 0.764
CCO[C@H]1[C@H](NC(=O)c2cccnc2)c2ccccc2C12CCN(C(=O)c1cnc(C)cn1)CC2 |  | 0.884
O=C(NCC1CCCN(Cc2nccs2)C1)c1cccc2ccccc12 (stereo not given) | 0.975 | 
O=C(c1csnn1)N1CCC(C2CCN(c3ncccn3)CC2)C1 (stereo not given) | 1.02 | 
COc1ccc(-n2ncc(C(C)NS(=O)(=O)c3cccc4nsnc34)c2C)cc1 (stereo not given) |  | 0.002
Oc1ccc(CN2CCC3(CCCN(Cc4ccc(F)cc4)C3)C2)cc1 (stereo not given) | 0.948 | 

2 entries drawn at random from those above, as already listed:
Structure (SMILES) | bacterial growth OD600 (polymyxin B 1 µg/mL) | bacterial growth OD600 (polymyxin B 0.75 µg/mL)
COc1ccc(-c2nn(-c3ccccc3C)cc2CN2CCNC(=O)CC2)cc1F | 0.758 | 
Cc1cc(C(=O)N2CCCC(Nc3ccc(F)cc3)C2)n(C)n1 (stereo not given) | 0.811 | 
